Laboratory results: PubChem BioAssay AID1224828 (NIAID, 2016)
Test: 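Find genes required for NF-kappaB p65 moving into the nucleus after LPS in mouse macrophages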 (primary screen). Cells: mouse RAW264.7 G9 macrophage reporter cells (GFP-p65, Tnf promoter-mCherry). Reagents: siRNA pool against mouse genes, 100 nM. Time to read-out: 2 days siRNA transfection, then 40 min LPS before fixation. Treatment: LPS (Salmonella minnesota R595) at 10 ng/ml. Measured: 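Microscopy ratio of nuclear to perinuclear-ring GFP-p65 signal, scaled to the plate median; gene score is the average of two replicate robust z-scores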. Reading the numbers: p65 translocation robust z-score: higher = more nuclear NF-kappaB p65 after LPS than the plate median; nuclear/cytoplasmic p65 ratio: higher = more nuclear NF-kappaB p65. Hit rule: 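Active if robust z is above 3.3 (negative regulators) or below -1.56, the Tlr4 control median (positive regulators); activity score 50 or more; control wells not called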. Calls: active = hit (p65 shift raised or lowered); inactive = no clear change.
The deposit covers about 17,000 reagents; shown is a part drawn at random. 762 of them (4.5%) were called active. 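Active calls include both raised and lowered p65 entry, mostly lowered; wells with fewer than 50 cells lack a z-score.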 The raw values are shown without normalisation. Reagents against one gene are numbered here. Reagent sequences are not shown.

| gene knocked down | reagent no. | p65 translocation robust z-score | nuclear/cytoplasmic p65 ratio, rep 1 | nuclear/cytoplasmic p65 ratio, rep 2 | low cell count flag | Outcome |
| --- | --- | --- | --- | --- | --- | --- |
| Klra3 | 1 | – | 1.47 | 1.06 | fewer than 50 cells per well; well left out of scoring | inactive |
| Fars2 | 1 | 4.51 | 1.13 | 2.09 | enough cells to score | active |
| Gpaa1 | 1 | 1.48 | 1.34 | 1.58 | enough cells to score | inactive |
| Trp63 | 1 | 0.49 | 1.61 | 1.46 | enough cells to score | inactive |
| Csad | 1 | -1.54 | 1.28 | 1.17 | enough cells to score | inactive |
| Asb7 | 1 | -1.8 | 1.22 | 1.37 | enough cells to score | active |
| Cbln2 | 1 | -1.8 | 1.34 | 1.47 | enough cells to score | active |
| Klra16 | 1 | 0.01 | 1.48 | 1.38 | enough cells to score | inactive |
| Slf1 | 1 | 0.55 | 1.61 | 1.85 | enough cells to score | inactive |
| Tmem74b | 1 | -0.29 | 1.49 | 1.65 | enough cells to score | inactive |
| Ap3m2 | 1 | 0.53 | 1.43 | 1.83 | enough cells to score | inactive |
| Matcap2 | 1 | 0.03 | 1.49 | 1.49 | enough cells to score | inactive |
| Or5p5 | 1 | 2.06 | 1.67 | 2.01 | enough cells to score | inactive |
| Dagla | 1 | 0.05 | 1.79 | 1.47 | enough cells to score | inactive |
| Zfp329 | 1 | 1.08 | 1.32 | 1.47 | enough cells to score | inactive |
| Ubald2 | 1 | – | 1.29 | 1.17 | fewer than 50 cells per well; well left out of scoring | inactive |
| Lamp1 | 1 | 0.09 | 1.46 | 1.54 | enough cells to score | inactive |
| Camta2 | 1 | -1.19 | 1.4 | 1.47 | enough cells to score | inactive |
| Crip2 | 1 | 0.71 | 1.67 | 1.91 | enough cells to score | inactive |
| Tmc8 | 1 | -1.46 | 1.01 | 1.41 | enough cells to score | inactive |
| Fxyd4 | 1 | 2.07 | 1.88 | 1.8 | enough cells to score | inactive |
| Neo1 | 1 | -0.29 | 1.39 | 1.32 | enough cells to score | inactive |
| Shh | 1 | -0.36 | 1.52 | 1.48 | enough cells to score | inactive |
| Sds | 1 | -0.2 | 1.3 | 1.2 | enough cells to score | inactive |
| Ttc27 | 1 | 0.84 | 1.54 | 1.55 | enough cells to score | inactive |
| Defa31 | 1 | 2.81 | 1.84 | 1.72 | enough cells to score | inactive |
| Dcdc2a | 1 | -0.54 | 1.56 | 1.4 | enough cells to score | inactive |
| Nr6a1 | 1 | -1.17 | 1.36 | 1.2 | enough cells to score | inactive |
| Arid3a | 1 | 0.18 | 1.66 | 1.63 | enough cells to score | inactive |
| Zfp169 | 1 | 1.92 | 1.6 | 1.71 | enough cells to score | inactive |
| Exoc2 | 1 | 1.71 | 1.63 | 1.45 | enough cells to score | inactive |
| Zdhhc21 | 1 | 0.76 | 1.55 | 1.3 | enough cells to score | inactive |
| Gtsf2 | 1 | – | 1.29 | 1.4 | fewer than 50 cells per well; well left out of scoring | inactive |
| Slc2a9 | 1 | – | 1.26 | 1.52 | fewer than 50 cells per well; well left out of scoring | inactive |
| Rab1b | 1 | – | 1.47 | 1.41 | fewer than 50 cells per well; well left out of scoring | inactive |
| Bsnd | 1 | 0.03 | 1.62 | 1.62 | enough cells to score | inactive |
| Or5b117 | 1 | 0.42 | 1.65 | 1.5 | enough cells to score | inactive |
| Sult5a1 | 1 | – | 1.22 | 1.23 | fewer than 50 cells per well; well left out of scoring | inactive |
| Pcdhga12 | 1 | 1.26 | 1.62 | 1.38 | enough cells to score | inactive |
| Morn4 | 1 | 0.71 | 1.59 | 2.07 | enough cells to score | inactive |
| Cib3 | 1 | -0.53 | 1.52 | 1.55 | enough cells to score | inactive |
| Higd1a | 1 | -0.43 | 1.32 | 1.38 | enough cells to score | inactive |
| Bmper | 1 | -0.11 | 1.38 | 1.55 | enough cells to score | inactive |
| 1700065D16Rik | 1 | -0.15 | 1.31 | 1.4 | enough cells to score | inactive |
| Snrpb2 | 1 | -1.02 | 1.31 | 1.12 | enough cells to score | inactive |
| H2bc9 | 1 | -1.38 | 1.25 | 1.22 | enough cells to score | inactive |
| Dhx35 | 1 | 1.02 | 1.73 | 1.68 | enough cells to score | inactive |
| Vti1a | 1 | -0.01 | 1.48 | 1.15 | enough cells to score | inactive |
| Vti1a | 2 | – | 1.33 | 1.5 | fewer than 50 cells per well; well left out of scoring | inactive |
| Or2y1b | 1 | 1.45 | 1.89 | 1.78 | enough cells to score | inactive |
| Fads1 | 1 | -0.41 | 1.55 | 1.39 | enough cells to score | inactive |
| Tnpo2 | 1 | – | 1.1 | 1.21 | fewer than 50 cells per well; well left out of scoring | inactive |
| Drc10 | 1 | – | 1.34 | 1.17 | fewer than 50 cells per well; well left out of scoring | inactive |
| Gripap1 | 1 | 0.78 | 1.6 | 1.46 | enough cells to score | inactive |
| Golga5 | 1 | 0.5 | 1.41 | 1.53 | enough cells to score | inactive |
| Tas2r126 | 1 | -0.29 | 1.47 | 1.55 | enough cells to score | inactive |
| Atox1 | 1 | – | 0.987 | 1.87 | fewer than 50 cells per well; well left out of scoring | inactive |
| Dkk1 | 1 | -1.68 | 1.25 | 1.14 | enough cells to score | active |
| Stx1a | 1 | -0.26 | 1.56 | 1.47 | enough cells to score | inactive |

In a second layout: 5 of the entries above
gene knocked down	reagent no.	p65 translocation robust z-score	nuclear/cytoplasmic p65 ratio, rep 1	nuclear/cytoplasmic p65 ratio, rep 2	low cell count flag	Outcome
Cbln2	1	-1.8	1.34	1.47	enough cells to score	active
Klra16	1	0.01	1.48	1.38	enough cells to score	inactive
Slf1	1	0.55	1.61	1.85	enough cells to score	inactive
Tmem74b	1	-0.29	1.49	1.65	enough cells to score	inactive
Ap3m2	1	0.53	1.43	1.83	enough cells to score	inactive
